Source: article PMC8699254

Protein sequences, listed by entry. Tags and fused reporters are not part of them.
UniProt Q6ZS72: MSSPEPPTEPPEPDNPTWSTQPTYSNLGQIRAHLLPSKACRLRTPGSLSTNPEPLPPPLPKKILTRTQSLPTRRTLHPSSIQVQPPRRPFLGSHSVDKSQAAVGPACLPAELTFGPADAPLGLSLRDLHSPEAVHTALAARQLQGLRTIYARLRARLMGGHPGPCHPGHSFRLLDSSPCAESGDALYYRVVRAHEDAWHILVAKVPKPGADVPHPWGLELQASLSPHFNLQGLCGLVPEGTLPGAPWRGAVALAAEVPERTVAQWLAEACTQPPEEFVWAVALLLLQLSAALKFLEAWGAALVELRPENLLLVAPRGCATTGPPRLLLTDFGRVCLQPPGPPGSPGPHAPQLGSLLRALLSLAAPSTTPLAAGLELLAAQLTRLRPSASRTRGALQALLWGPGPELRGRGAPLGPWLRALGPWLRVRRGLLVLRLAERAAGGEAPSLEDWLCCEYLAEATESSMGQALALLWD
UniProt O43150: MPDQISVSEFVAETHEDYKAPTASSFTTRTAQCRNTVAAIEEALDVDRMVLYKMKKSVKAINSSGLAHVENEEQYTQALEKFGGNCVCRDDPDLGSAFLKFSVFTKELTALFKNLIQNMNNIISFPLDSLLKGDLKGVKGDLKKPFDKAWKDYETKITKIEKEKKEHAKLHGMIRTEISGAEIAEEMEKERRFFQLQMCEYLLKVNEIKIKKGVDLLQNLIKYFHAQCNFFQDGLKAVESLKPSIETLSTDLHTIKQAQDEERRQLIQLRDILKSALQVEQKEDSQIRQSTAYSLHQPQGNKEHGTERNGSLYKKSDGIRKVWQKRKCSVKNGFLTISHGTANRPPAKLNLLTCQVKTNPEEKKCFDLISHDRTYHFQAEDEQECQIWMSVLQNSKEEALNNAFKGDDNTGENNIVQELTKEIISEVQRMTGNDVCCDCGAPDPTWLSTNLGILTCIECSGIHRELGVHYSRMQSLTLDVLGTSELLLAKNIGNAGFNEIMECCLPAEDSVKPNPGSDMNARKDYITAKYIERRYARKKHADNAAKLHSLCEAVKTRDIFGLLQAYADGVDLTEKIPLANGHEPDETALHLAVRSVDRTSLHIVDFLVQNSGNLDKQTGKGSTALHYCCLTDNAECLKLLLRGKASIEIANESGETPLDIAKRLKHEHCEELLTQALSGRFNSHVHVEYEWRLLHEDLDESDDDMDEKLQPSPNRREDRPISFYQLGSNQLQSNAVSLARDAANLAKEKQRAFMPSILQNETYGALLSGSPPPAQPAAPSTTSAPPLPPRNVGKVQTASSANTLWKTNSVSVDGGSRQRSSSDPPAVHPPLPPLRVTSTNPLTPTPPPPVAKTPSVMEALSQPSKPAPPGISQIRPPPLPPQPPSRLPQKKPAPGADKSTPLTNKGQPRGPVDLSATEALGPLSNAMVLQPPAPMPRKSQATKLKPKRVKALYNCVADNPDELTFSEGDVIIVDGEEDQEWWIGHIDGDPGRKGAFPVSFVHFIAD
UniProt Q14289: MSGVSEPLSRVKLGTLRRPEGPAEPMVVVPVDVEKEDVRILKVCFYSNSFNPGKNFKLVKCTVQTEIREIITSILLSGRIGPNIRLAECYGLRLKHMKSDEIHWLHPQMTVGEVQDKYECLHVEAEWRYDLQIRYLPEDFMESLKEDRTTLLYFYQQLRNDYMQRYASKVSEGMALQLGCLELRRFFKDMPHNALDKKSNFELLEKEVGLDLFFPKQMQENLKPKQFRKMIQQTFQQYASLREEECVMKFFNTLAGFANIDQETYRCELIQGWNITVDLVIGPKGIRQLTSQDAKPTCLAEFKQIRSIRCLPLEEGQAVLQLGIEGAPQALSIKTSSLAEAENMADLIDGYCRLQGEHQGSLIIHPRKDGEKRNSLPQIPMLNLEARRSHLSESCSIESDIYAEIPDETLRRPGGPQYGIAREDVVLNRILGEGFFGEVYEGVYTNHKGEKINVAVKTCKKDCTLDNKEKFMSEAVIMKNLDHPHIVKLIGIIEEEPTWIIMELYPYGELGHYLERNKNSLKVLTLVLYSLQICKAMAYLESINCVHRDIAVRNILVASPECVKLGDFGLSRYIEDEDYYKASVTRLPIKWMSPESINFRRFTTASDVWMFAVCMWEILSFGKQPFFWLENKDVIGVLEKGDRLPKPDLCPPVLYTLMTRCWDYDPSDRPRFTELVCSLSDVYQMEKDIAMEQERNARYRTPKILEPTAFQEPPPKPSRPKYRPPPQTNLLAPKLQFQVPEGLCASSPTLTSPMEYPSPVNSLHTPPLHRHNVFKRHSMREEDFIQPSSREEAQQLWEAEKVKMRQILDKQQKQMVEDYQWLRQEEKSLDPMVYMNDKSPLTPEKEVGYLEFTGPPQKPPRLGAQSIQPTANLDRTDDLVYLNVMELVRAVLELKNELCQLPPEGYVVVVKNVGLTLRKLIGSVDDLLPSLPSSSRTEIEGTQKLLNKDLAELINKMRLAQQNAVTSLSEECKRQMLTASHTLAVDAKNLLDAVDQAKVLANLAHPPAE
UniProt Q9H792: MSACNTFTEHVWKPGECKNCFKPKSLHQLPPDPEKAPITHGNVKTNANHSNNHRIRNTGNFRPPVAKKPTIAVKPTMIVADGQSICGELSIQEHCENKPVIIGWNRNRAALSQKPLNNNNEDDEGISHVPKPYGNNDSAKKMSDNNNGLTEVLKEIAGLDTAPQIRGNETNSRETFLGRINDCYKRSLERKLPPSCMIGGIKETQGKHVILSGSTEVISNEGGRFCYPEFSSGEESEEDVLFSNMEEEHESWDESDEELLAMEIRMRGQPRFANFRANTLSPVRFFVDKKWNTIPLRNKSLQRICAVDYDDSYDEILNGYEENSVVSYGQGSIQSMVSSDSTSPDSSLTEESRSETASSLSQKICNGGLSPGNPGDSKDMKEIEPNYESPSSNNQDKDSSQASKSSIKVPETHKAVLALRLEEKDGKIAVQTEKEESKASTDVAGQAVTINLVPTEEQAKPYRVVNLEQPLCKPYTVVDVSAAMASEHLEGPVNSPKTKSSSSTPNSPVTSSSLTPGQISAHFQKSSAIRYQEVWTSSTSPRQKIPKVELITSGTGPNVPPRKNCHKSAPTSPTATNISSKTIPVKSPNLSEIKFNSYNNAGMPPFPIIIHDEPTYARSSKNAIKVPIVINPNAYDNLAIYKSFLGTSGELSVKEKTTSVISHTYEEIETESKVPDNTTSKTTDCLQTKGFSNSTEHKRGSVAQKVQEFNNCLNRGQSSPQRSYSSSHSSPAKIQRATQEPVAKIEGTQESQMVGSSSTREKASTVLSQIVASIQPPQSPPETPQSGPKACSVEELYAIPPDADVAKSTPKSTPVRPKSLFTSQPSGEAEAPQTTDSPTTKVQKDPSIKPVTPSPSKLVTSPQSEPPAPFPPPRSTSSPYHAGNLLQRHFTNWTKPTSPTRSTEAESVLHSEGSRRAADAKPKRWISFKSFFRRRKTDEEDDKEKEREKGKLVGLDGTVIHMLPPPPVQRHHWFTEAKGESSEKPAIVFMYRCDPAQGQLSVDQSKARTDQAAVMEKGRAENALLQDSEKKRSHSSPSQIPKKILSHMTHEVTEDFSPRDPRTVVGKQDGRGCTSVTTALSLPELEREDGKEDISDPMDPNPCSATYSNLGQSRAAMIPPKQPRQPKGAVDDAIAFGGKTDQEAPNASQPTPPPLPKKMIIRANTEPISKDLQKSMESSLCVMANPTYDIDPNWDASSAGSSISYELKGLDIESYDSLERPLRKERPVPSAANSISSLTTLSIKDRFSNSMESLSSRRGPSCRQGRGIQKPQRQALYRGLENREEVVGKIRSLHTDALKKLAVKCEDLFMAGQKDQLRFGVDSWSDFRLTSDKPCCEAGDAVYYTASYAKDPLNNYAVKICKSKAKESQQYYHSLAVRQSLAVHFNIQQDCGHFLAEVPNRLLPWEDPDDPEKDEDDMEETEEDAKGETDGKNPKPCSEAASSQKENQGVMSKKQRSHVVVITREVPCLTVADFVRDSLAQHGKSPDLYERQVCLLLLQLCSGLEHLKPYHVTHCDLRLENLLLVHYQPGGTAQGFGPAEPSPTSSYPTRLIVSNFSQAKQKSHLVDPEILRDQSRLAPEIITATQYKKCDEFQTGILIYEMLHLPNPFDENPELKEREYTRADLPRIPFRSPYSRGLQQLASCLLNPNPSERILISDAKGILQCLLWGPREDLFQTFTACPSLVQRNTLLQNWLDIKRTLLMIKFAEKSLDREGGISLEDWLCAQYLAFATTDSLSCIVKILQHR
UniProt P21796: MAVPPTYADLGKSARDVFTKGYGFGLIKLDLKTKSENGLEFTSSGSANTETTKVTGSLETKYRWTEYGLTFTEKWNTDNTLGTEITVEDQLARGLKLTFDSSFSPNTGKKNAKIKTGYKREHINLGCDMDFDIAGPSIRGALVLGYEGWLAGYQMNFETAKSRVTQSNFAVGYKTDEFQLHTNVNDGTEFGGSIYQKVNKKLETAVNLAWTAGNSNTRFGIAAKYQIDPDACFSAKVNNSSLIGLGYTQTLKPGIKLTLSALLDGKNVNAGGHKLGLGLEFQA

Molecular target: Strep-tagged PEAK3 (ST-PEAK3), wild type (human) (UniProt Q6ZS72)

Row | Substance | binding
1 | ADP-ribosylation factor (ARF) GTPase-activating protein ASAP2 (from UniProt O43150 1-1006) | binds
2 | FAK-like tyrosine kinase PYK2 (endogenous) (from UniProt Q14289 1-1009) (enzyme) | binds
3 | PEAK1 (from UniProt Q9H792 1-1746) | binds
4 | voltage-dependent anion-selective channel protein VDAC1 (from UniProt P21796 1-283) | binds

Results are given in words; binding and its absence hold for the method and conditions named. In cells and extracts the contact can be indirect. Here binding means that the protein was enriched with, or labelled near, the bait; the list need not be complete.
